Source: publication PMC7931231

By UniProt entry, the sequences of proteins in these tests, tags left out. Where a name states a change or a piece, a line headed by the entry shows the natural chain unless it says otherwise.
UniProt P04406: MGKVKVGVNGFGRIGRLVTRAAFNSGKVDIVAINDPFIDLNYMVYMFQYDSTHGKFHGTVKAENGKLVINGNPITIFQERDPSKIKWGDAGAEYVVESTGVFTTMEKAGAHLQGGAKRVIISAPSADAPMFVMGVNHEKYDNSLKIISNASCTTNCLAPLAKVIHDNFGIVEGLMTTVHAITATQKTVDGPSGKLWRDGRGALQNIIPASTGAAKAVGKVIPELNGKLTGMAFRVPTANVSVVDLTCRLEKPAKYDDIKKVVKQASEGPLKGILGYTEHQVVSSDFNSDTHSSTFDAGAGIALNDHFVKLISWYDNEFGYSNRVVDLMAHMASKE
UniProt Q16740: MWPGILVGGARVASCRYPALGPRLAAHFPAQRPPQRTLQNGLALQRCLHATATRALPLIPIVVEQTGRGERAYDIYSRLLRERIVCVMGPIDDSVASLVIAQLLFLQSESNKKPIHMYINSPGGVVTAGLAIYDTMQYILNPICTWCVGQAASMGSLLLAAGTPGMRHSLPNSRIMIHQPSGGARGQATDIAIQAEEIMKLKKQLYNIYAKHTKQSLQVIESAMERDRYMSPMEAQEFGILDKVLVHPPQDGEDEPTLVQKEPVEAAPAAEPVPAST
UniProt P07339: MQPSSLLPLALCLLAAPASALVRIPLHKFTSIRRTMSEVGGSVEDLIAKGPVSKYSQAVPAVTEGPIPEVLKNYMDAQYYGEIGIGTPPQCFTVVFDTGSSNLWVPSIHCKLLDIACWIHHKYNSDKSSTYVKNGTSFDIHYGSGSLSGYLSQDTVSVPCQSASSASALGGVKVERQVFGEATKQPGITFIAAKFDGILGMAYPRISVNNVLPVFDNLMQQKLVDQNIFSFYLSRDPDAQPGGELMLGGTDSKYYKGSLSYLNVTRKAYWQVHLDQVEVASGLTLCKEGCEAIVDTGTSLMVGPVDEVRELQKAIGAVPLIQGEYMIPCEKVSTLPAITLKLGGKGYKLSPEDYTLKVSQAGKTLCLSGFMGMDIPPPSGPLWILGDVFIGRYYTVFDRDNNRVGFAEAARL

T1: Flag-NEK5 wild-type (NEK5^WT) (human) (UniProt Q6P3R8)
T1 sequence: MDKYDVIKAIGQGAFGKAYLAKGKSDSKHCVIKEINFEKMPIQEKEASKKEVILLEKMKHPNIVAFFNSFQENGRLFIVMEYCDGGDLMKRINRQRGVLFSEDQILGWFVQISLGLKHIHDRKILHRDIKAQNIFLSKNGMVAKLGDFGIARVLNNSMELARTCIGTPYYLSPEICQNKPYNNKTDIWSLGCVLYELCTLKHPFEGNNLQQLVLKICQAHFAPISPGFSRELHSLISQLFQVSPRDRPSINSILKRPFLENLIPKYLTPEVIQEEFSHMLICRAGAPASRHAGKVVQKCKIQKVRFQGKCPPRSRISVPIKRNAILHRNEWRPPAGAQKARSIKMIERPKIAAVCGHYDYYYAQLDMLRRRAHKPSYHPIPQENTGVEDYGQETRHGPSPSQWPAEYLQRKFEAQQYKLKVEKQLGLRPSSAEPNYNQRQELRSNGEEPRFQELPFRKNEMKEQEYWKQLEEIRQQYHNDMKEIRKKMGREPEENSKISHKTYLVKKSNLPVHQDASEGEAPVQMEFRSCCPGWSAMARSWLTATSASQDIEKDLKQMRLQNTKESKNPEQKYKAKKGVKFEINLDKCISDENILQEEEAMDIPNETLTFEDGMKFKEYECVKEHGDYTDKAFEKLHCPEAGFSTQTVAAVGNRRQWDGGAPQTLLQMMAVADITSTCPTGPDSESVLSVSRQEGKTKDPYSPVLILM


biological target: T1, Flag-NEK5 wild-type (NEK5^WT) (human); test: affinity purification with mass spectrometry; anti-FLAG IP of Flag-NEK5^WT from crude mitochondria of Flp-In T-REx 293T cells, LC-MS/MS; hits kept if in at least three replicates of FLAG-NEK5 and in none or one replicate of control-FLAG IP

Molecule | binding
GAPDH (from UniProt P04406 1-335) | binds
CLPP (from UniProt Q16740 57-277) | binds
CTSD (from UniProt P07339) | binds
GPD1L (protein, UniProt Q8N335 1-351) MAAAPLKVCIVGSGNWGSAVAKIIGNNVKKLQKFASTVKMWVFEETVNGRKLTDIINNDHENVKYLPGHKLPENVVAMSNLSEAVQDADLLVFVIPHQFIHRICDEITGRVPKKALGITLIKGIDEGPEGLKLISDIIREKMGIDISVLMGANIANEVAAEKFCETTIGSKVMENGLLFKELLQTPNFRITVVDDADTVELCGALKNIVAVGAGFCDGLRCGDNTKAAVIRLGLMEMIAFARIFCKGQVSTATFLESCGVADLITTCYGGRNRRVAEAFARTGKTIEELEKEMLNGQKLQGPQTSAEVYRILKQKGLLDKFPLFTAVYQICYESRPVQEMLSCLQSHPEHT | binds
SDHB (protein, UniProt P21912 29-280) AQTAAATAPRIKKFAIYRWDPDKAGDKPHMQTYEVDLNKCGPMVLDALIKIKNEVDSTLTFRRSCREGICGSCAMNINGGNTLACTRRIDTNLNKVSKIYPLPHMYVIKDLVPDLSNFYAQYKSIEPYLKKKDESQEGKQQYLQSIEEREKLDGLYECILCACCSTSCPSYWWNGDKYLGPAVLMQAYRWMIDSRDDFTEERLAKLQDPFSLYRCHTIMNCTRTCPKGLNPGKAIAEIKKMMATYKEKKASV | binds
LonP1 (endogenous, Flp-In T-REx 293T cells) (protein, UniProt P36776 68-959) FWEASSRGGGAFSGGEDASEGGAEEGAGGAGGSAGAGEGPVITALTPMTIPDVFPHLPLIAITRNPVFPRFIKIIEVKNKKLVELLRRKVRLAQPYVGVFLKRDDSNESDVVESLDEIYHTGTFAQIHEMQDLGDKLRMIVMGHRRVHISRQLEVEPEEPEAENKHKPRRKSKRGKKEAEDELSARHPAELAMEPTPELPAEVLMVEVENVVHEDFQVTEEVKALTAEIVKTIRDIIALNPLYRESVLQMMQAGQRVVDNPIYLSDMGAALTGAESHELQDVLEETNIPKRLYKALSLLKKEFELSKLQQRLGREVEEKIKQTHRKYLLQEQLKIIKKELGLEKDDKDAIEEKFRERLKELVVPKHVMDVVDEELSKLGLLDNHSSEFNVTRNYLDWLTSIPWGKYSNENLDLARAQAVLEEDHYGMEDVKKRILEFIAVSQLRGSTQGKILCFYGPPGVGKTSIARSIARALNREYFRFSVGGMTDVAEIKGHRRTYVGAMPGKIIQCLKKTKTENPLILIDEVDKIGRGYQGDPSSALLELLDPEQNANFLDHYLDVPVDLSKVLFICTANVTDTIPEPLRDRMEMINVSGYVAQEKLAIAERYLVPQARALCGLDESKAKLSSDVLTLLIKQYCRESGVRNLQKQVEKVLRKSAYKIVSGEAESVEVTPENLQDFVGKPVFTVERMYDVTPPGVVMGLAWTAMGGSTLFVETSLRRPQDKDAKGDKDGSLEVTGQLGEVMKESARIAYTFARAFLMQHAPANDYLVTSHIHLHVPEGATPKDGPSAGCTIVTALLSLAMGRPVRQNLAMTGEVSLTGKILPVGGIKEKTIAAKRAGVTCIVLPAENKKDFYDLAAFITEGLEVHFVEHYREIFDIAFPDEQAEALAVER | binds

Results are given in words; binding and its absence hold for the method and conditions named. Binding seen in cells or lysates may run through a third protein. A yes stands for co-enrichment or nearness to the bait. Other partners may have been found. Tags and fused reporters may be left off the sequences shown.
